The record followed here is patent publication US20070282017A1 (Harvard, published 2007).

This assay has as its target T1, Endogenous JIP3 in cerebellar granule neurons (rat) (UniProt E9PSK7).
T1 sequence (phosphorylated (sites not given), looked up): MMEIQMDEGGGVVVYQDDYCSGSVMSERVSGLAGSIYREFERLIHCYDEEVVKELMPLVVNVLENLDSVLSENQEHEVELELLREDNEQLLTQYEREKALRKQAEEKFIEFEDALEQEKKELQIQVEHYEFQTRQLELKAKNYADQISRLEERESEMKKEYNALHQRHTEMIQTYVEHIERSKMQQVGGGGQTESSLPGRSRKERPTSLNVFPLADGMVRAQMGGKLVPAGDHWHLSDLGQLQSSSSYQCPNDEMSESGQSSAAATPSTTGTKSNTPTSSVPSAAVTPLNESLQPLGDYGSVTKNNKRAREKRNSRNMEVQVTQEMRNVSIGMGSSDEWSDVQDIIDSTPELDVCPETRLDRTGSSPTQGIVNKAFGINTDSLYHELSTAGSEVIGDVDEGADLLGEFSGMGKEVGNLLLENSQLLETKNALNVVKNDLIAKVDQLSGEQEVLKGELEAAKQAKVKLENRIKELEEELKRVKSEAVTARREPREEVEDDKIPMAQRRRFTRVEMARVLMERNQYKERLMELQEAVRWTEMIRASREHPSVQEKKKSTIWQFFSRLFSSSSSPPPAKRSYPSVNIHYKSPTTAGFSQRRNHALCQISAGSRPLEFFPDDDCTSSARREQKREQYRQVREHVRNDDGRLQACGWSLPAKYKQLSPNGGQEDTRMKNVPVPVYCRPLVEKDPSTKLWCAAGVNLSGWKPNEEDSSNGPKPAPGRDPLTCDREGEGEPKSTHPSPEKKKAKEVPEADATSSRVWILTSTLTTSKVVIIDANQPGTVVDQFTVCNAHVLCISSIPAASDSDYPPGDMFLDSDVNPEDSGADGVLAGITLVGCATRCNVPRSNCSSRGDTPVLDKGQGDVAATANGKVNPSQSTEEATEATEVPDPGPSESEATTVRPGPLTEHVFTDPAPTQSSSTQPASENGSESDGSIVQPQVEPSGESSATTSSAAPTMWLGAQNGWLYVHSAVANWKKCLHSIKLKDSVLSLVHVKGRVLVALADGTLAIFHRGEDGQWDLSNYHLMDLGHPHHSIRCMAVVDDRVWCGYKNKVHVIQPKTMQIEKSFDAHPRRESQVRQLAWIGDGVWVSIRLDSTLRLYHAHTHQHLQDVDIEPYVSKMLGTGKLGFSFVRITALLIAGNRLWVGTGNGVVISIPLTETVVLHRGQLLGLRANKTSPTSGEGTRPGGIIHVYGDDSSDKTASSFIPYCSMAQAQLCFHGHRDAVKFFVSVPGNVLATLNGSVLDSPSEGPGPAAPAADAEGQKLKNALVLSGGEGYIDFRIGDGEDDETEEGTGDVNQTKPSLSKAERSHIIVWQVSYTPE
In words: co-immunoprecipitation with a JIP3 antibody from granule neuron lysates, Pin1 immunoblot; interaction decreased after starvation.

These are yes or no findings as the source states them, for the method shown. In cells and extracts the contact can be indirect. A result given as binding can be weak or reduced; the word gives no strength.

As to “Endogenous Pin1 in cerebellar granule neurons (rat) (enzyme)”, the binding entry is “binds”.
